Values from PubChem BioAssay AID1259286 (Sanger Institute, 2017).
Aim: 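Kinase knock-downs that reduce colorectal cancer cell viability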 (primary screen). Cell system: NCI-H630 human colorectal cancer cells. Knock-down reagent: siRNA pool against human genes. Treatment: anchor drugs BYL719 at 1 µM, cetuximab at 5 µg/ml or trametinib at 10 nM, or DMSO vehicle alone; exposure time not given. Measurement: 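Replicate-averaged viability as a fraction of non-targeting control, knock-down-alone robust z-score, and per-drug synergy scores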. Reading the numbers: viability z-score, knock-down alone: higher = more viable cells, weaker knock-down effect; viability vs control, knock-down alone: higher = more viable cells; synergy score with trametinib: higher = stronger synergistic killing with trametinib; synergy score with BYL719: higher = stronger synergistic killing with BYL719; synergy score with cetuximab: higher = stronger synergistic killing with cetuximab. Active means: 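Essential call: robust z-score of viability with siRNA alone lower than -3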. Meaning of the calls: active = essential when knocked down alone; inactive = not essential alone.
Shown is an unselected part of 794 reagents tested. 17 of all reagents (2.1%) were called active. 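Calls use knock-down alone only; synergy above 0.15 marked separately; viability seems capped at control level; exposure time not given.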 A number with no mark means an inactive call. No sequences are given here. The record does not give: the amount of reagent, the time to read-out.

| Target gene | viability z-score, knock-down alone | viability vs control, knock-down alone (fraction of control) | synergy score with trametinib | synergy score with BYL719 | synergy score with cetuximab |
| --- | --- | --- | --- | --- | --- |
| CSF1R | -1.28 | 0.934 | -0.0719 | 0.0591 | 0.0298 |
| CKB | 0.464 | 1 | -0.0479 | -0.0814 | -0.0365 |
| PIK3CA | 0.464 | 1 | -0.0479 | -0.0814 | 0.00924 |
| MAPK11 | 0.464 | 1 | -0.0479 | -0.0572 | 0.00209 |
| IKBKB | 0.464 | 1 | 0.0357 | 0.0194 | 0.0355 |
| CKM | -0.366 | 0.969 | -0.0778 | -0.0793 | 0.00341 |
| IP6K3 | -1.43 | 0.928 | 0.0216 | 0.0707 | 0.0983 |
| RPS6KL1 | 0.464 | 1 | -0.0479 | -0.0814 | -0.0047 |
| RAF1 | 0.464 | 1 | -0.0354 | 0.0667 | 0.14 |
| COQ8B | 0.461 | 1 | -0.048 | -0.0815 | 0.00521 |
| CDKL3 | 0.464 | 1 | -0.0322 | -0.0316 | -0.0672 |
| NRBP2 | -0.596 | 0.96 | -0.0644 | -0.00373 | 0.0148 |
| TWF1 | 0.464 | 1 | -0.0356 | -0.0814 | -0.121 |
| PSTK | 0.191 | 0.99 | -0.0577 | -0.0421 | -0.0296 |
| TYRO3 | 0.359 | 0.996 | -0.0516 | -0.0587 | 0.00807 |
| ROS1 | 0.464 | 1 | -0.0456 | 0.0525 | -0.0062 |
| FBXW7 | 0.464 | 1 | 0.0512 | -0.0814 | 0.0123 |
| AGK | 0.464 | 1 | -0.0369 | -0.0814 | -0.0606 |
| PANK2 | -0.575 | 0.961 | -0.0853 | -0.046 | 0.032 |
| PRKCSH | 0.464 | 1 | -0.0299 | -0.054 | -0.00954 |
| THNSL1 | 0.464 | 1 | -0.0479 | -0.0814 | 0.0597 |
| PCK2 | 0.464 | 1 | -0.00855 | -0.0814 | 0.0342 |
| STK17A | -1.22 | 0.936 | -0.0051 | 0.0453 | 0.0917 |
| MARK3 | 0.464 | 1 | 0.039 | -0.0814 | -0.0213 |
| ADCK1 | 0.464 | 1 | -0.0479 | 0.0426 | 0.0528 |

Continued, starting with the last 6 of the part before.
| Target gene | viability z-score, knock-down alone | viability vs control, knock-down alone (fraction of control) | synergy score with trametinib | synergy score with BYL719 | synergy score with cetuximab |
| --- | --- | --- | --- | --- | --- |
| PRKCSH | 0.464 | 1 | -0.0299 | -0.054 | -0.00954 |
| THNSL1 | 0.464 | 1 | -0.0479 | -0.0814 | 0.0597 |
| PCK2 | 0.464 | 1 | -0.00855 | -0.0814 | 0.0342 |
| STK17A | -1.22 | 0.936 | -0.0051 | 0.0453 | 0.0917 |
| MARK3 | 0.464 | 1 | 0.039 | -0.0814 | -0.0213 |
| ADCK1 | 0.464 | 1 | -0.0479 | 0.0426 | 0.0528 |
| PRKY | -1.18 | 0.938 | -0.0161 | -0.0487 | 0.0151 |
| TRPM6 | 0.464 | 1 | -0.0479 | -0.0814 | 0.019 |
| PHKA1 | 0.464 | 1 | -0.0479 | -0.0814 | -0.00488 |
| PRKCD | -0.997 | 0.945 | 0.0305 | -0.0339 | 0.0557 |
| DGKA | 0.464 | 1 | -0.0479 | -0.0141 | 0.095 |
| ACVR2B | 0.464 | 1 | -0.0479 | -0.0814 | 0.0473 |
| WNK4 | 0.464 | 1 | 0.00261 | -0.0167 | -0.0209 |
| RET | 0.464 | 1 | -0.0479 | -0.081 | 0.0732 |
| PRKACB | 0.464 | 1 | -0.0479 | 0.0829 | -0.0141 |
| MATK | 0.464 | 1 | -0.0479 | -0.0814 | 0.0606 |
| CDK20 | -1.47 | 0.927 | -0.0299 | -0.0397 | 0.0442 |
| MAPK12 | 0.464 | 1 | -0.0479 | -0.069 | -0.0242 |
| EFNA4 | -0.4 | 0.967 | -0.0663 | -0.0386 | 0.0235 |
| AURKB | -3.23 (active) | 0.86 | -0.0436 | 0.0261 | -0.0762 |
| ACVR1B | 0.464 | 1 | -0.0479 | -0.0547 | 0.0503 |
| MYLK2 | 0.23 | 0.991 | -0.0372 | 0.109 | 0.104 |
| DYRK4 | -3.16 (active) | 0.863 | -0.0977 | -0.0265 | -0.0147 |
| HUNK | 0.0458 | 0.984 | -0.00822 | 0.0839 | 0.16 |
| MARK4 | 0.464 | 1 | -0.0479 | -0.0695 | -0.00763 |
| EPHA7 | 0.0854 | 0.986 | -0.0506 | -0.0582 | 0.00753 |
| UCK2 | 0.464 | 1 | -0.0479 | -0.0814 | 0.0217 |
| MAP3K8 | 0.464 | 1 | 0.00669 | 0.0883 | 0.138 |
| PKIA | 0.464 | 1 | 0.0492 | -0.00999 | 0.0198 |
| ZAP70 | 0.464 | 1 | -0.0479 | -0.0445 | 0.03 |
| PLK2 | 0.432 | 0.999 | -0.049 | 0.0225 | 0.0863 |
